According to US20170217914A1, “Novel Triarylethylene Compounds and Methods Using Same” (The Penn State Research Foundation, priority 2014, published 2017):
Some entries share one result that the patent states for a list of compounds.

What was measured:
[1] = system: MDA-MB-231 (ER-negative) human breast cancer cell line; experiment: MTT cell viability assay, MDA-MB-231 cells; settings: 72 h, versus Ospemifene and Tamoxifen
[2] = system: MCF-7 (ER-positive) human breast cancer cell line; experiment: MTT cell viability assay, MCF-7 cells; settings: 72 h, versus Ospemifene and Tamoxifen

SMILES | cytotoxic activity [1] | cytotoxic activity [2]
COc1ccc(/C(=C(/CCNC(=O)C(=O)N2CCCCC2)c2ccccc2)c2ccccc2)cc1 [Compound 26, (Z)—N-(4-(4-Methoxyphenyl)-3,4-diphenylbut-3-enyl)-2-oxo-2-(piperidin-1-yl)acetamide] | relatively less effective | relatively less effective
COc1ccc(/C(=C(/CCN=[N+]=[N-])c2ccccc2)c2ccccc2)cc1 [Compound 12, (Z)-(4-Azido-1-(4-methoxyphenyl)but-1-ene-1,2-diyl)dibenzene] | relatively less effective | relatively less effective
COc1ccc(/C(=C(/CCNC(=O)C(=O)N2CCCC2)c2ccccc2)c2ccccc2)cc1 [Compound 24, (Z)—N-(4-(4-Methoxyphenyl)-3,4-diphenylbut-3-enyl)-2-oxo-2-(pyrrolidin-1-yl)acetamide] | relatively less effective | relatively less effective
COc1ccc(/C(=C(/CCNC(=O)NC2CCCCC2)c2ccccc2)c2ccccc2)cc1 [Compound 17, (Z)-1-Cyclohexyl-3-(4-(4-methoxyphenyl)-3,4-diphenylbut-3-enyl) urea] | relatively less effective | relatively less effective
COc1ccc(/C(=C(/CCNC(=O)N2CCOCC2)c2ccccc2)c2ccccc2)cc1 [Compound 18, (Z)—N-(4-(4-Methoxyphenyl)-3,4-diphenylbut-3-enyl)morpholine-4-carboxamide] | relatively less effective | relatively less effective
CCOC(=O)C(=O)NCC/C(=C(\c1ccccc1)c1ccc(OC)cc1)c1ccccc1 [Compound 15, (Z)-Ethyl-2-(4-(4-methoxyphenyl)-3,4-diphenylbut-3-enylamino)-2-oxoacetate] | relatively less effective | relatively less effective
COc1ccc(/C(=C(/CCCl)c2ccccc2)c2ccccc2)cc1 [Compound 11, (Z)-(4-Chloro-1-(4-methoxyphenyl)but-1-ene-1,2-diyl)dibenzene] | relatively less effective | relatively less effective
COc1ccc(/C(=C(/CCNC(=O)NCc2ccccc2)c2ccccc2)c2ccccc2)cc1 [Compound 16, (Z)-1-Benzyl-3-(4-(4-methoxyphenyl)-3,4-diphenylbut-3-enyl) urea] | relatively less effective | relatively less effective
COc1ccc(/C(=C(/CCNC(=O)N2CCCC2)c2ccccc2)c2ccccc2)cc1 [Compound 21, (Z)—N-(4-(4-Methoxyphenyl)-3,4-diphenylbut-3-enyl)pyrrolidine-1-carboxamide] | relatively less effective | relatively less effective
CCN(CC)C(=O)NCC/C(=C(\c1ccccc1)c1ccc(OC)cc1)c1ccccc1 [Compound 19, (Z)-1,1-Diethyl-3-(4-(4-methoxyphenyl)-3,4-diphenylbut-3-enyl)urea] | relatively less effective | relatively less effective
COc1ccc(/C(=C(/CCNC(=O)C(=O)N2CCOCC2)c2ccccc2)c2ccccc2)cc1 [Compound 25, (Z)—N-(4-(4-Methoxyphenyl)-3,4-diphenylbut-3-enyl)-2-morpholino-2-oxoacetamide] | relatively less effective | relatively less effective
COc1ccc(/C(=C(/CCNC(=O)N2CCCCC2)c2ccccc2)c2ccccc2)cc1 [Compound 20, (Z)—N-(4-(4-Methoxyphenyl)-3,4-diphenylbut-3-enyl)piperidine-1-carboxamide] | relatively less effective | relatively less effective
